Results taken from paper doi:10.1101/2023.02.28.530553.

Test system: MBP-OsNLP4 (Oryza sativa L.)
Assay: EMSA

**Q.** Does “TAATACTGTTGTTTGATACTAATGAGTCAAGTTG (double strand) [OsRFL promoter NRE probe (EMSA/OsRFL-3)]” bind?
**A.** binds

For at least one entry, the source does not settle the construct or the ends of the probe.
